Laboratory results: PubChem BioAssay AID686938 (Drosophila RNAi Screening Center, 2013)

Aim: 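Knock-downs reducing store-operated calcium influx in Drosophila cells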 (primary screen)
System: Drosophila S2R+ cells
Reagent: long dsRNA against Drosophila genes, about 0.25 µg dsRNA per well, roughly 10,000 cells
Time to read-out: 5 days of knock-down before the calcium assay
Challenge: thapsigargin (SERCA pump blocker) to empty calcium stores; entry signal taken 4 min after adding it
Measured: 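Per-well fluo-4 fluorescence in two replicates, unnormalised, measured in resting cells and 4 min after store depletion by the SERCA blocker thapsigargin; ratio of the two present in few wells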
Scale: calcium entry signal: higher = stronger calcium signal after store depletion; resting calcium signal: higher = higher resting calcium signal
Hit rule: 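Called when the plate z-score of the entry-to-rest ratio, mean of duplicates, falls below −3; wells with low overall dye signal (Fmax z below −2) or more than five off-targets excluded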
Calls: active = strongly reduced calcium entry; inactive = no strong reduction
The deposit covers about 23,000 reagents; below is an unselected part of those that have a named target and a result. In the full data, 75 (0.33%) were called active. 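Raw plate signals without normalisation; calls rest on plate z-scores that were not deposited; ratio present for only 364 wells.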 A number with no mark means an inactive call. Reagents against one gene are numbered here. Names joined by + are all predicted targets of the reagent. No sequences are given here. Not stated in the record: the dose of the treatment.

gene | reagent no. | calcium entry signal, replicate 1 (fluorescence units) | calcium entry signal, replicate 2 (fluorescence units) | resting calcium signal, replicate 1 (fluorescence units) | resting calcium signal, replicate 2 (fluorescence units)
fd19B (GeneID 33010) | 1 | 4.93e7 | 3.04e7 | 2.42e7 | 1.58e7
vari (GeneID 35343) | 1 | 4.47e7 | 6.40e7 | 2.02e7 | 2.45e7
lncRNA:CR43434 (GeneID 12798271) | 1 | 3.81e7 | 3.54e7 | 1.96e7 | 1.78e7
CG15439 (GeneID 33651) | 1 | 4.92e7 | 2.38e7 | 2.26e7 | 1.24e7
CG11180 (GeneID 37330) | 1 | 3.29e7 | 3.17e7 | 1.61e7 | 1.70e7
cag (GeneID 36157) | 1 | 4.20e7 | 3.93e7 | 2.04e7 | 1.79e7
jar (GeneID 42889) | 1 | 3.95e7 | 7.39e7 | 2.03e7 | 2.80e7
CG2493 (GeneID 35316) | 1 | 3.81e7 | – | 2.07e7 | –
CG14247 (GeneID 43221) | 1 | 2.60e7 | 4.99e7 | 1.33e7 | 2.05e7
betaNACtes4 (GeneID 32389) | 1 | 3.43e7 | 3.44e7 | 1.86e7 | 1.71e7
Dhc93AB (GeneID 42485) | 1 | 4.21e7 | 4.45e7 | 6.12e7 | 2.12e7
t-Grip84 (GeneID 38852) | 1 | 3.17e7 | 5.09e7 | 1.51e7 | 2.09e7
CG16853 (GeneID 34771) | 1 | 3.64e7 | 2.26e7 | 1.63e7 | 1.17e7
z (GeneID 31230) | 1 | 3.62e7 | 5.35e7 | 1.88e7 | 2.44e7
z (GeneID 31230) | 2 | 3.11e7 | 4.13e7 | 1.56e7 | 1.82e7
Trc8 (GeneID 43476) | 1 | 3.66e7 | 3.92e7 | 1.75e7 | 1.90e7
CG32079 (GeneID 39230) | 1 | 4.61e7 | 4.30e7 | 2.81e7 | 1.93e7
Ir64a (GeneID 38616) | 1 | 3.27e7 | 4.65e7 | 1.66e7 | 2.32e7
Ir64a (GeneID 38616) | 2 | 2.84e7 | 4.79e7 | 1.38e7 | 2.11e7
jeb (GeneID 36295) | 1 | 1.69e7 | 3.27e7 | 1.01e7 | 1.37e7
jeb (GeneID 36295) | 2 | 1.69e7 | 2.96e7 | 9.46e6 | 1.28e7
tej (GeneID 36590) | 1 | 2.46e7 | 2.98e7 | 1.25e7 | 1.27e7
pll (GeneID 43283) | 1 | 3.29e7 | 3.51e7 | 1.57e7 | 1.73e7
CG8176 (GeneID 261329) | 1 | 2.93e7 | 2.56e7 | 1.42e7 | 1.36e7
CG15279 (GeneID 34863) | 1 | 4.43e7 | – | 2.02e7 | –
Remo (GeneID 2768909) | 1 | 4.61e7 | 4.34e7 | 2.11e7 | 1.77e7
ssx (GeneID 31086) | 1 | 4.15e7 | 4.66e7 | 2.06e7 | 2.12e7
Patr-1 (GeneID 42058) | 1 | 2.52e7 | 2.35e7 | 1.43e7 | 1.20e7
ovm + CG31975 | 1 | 2.52e7 | 3.75e7 | 1.24e7 | 2.04e7
Sos (GeneID 34790) | 1 | 3.63e7 | 2.46e7 | 1.72e7 | 1.32e7
CG32855 (GeneID 318250) | 1 | 2.31e7 | 2.14e7 | 1.11e7 | 1.06e7
CG1387 (GeneID 31770) | 1 | 2.61e7 | 2.49e7 | 1.20e7 | 1.21e7
Kyat (GeneID 41433) | 1 | 4.28e7 | 4.14e7 | 2.07e7 | 2.09e7
TwdlH (GeneID 43208) | 1 | 1.49e7 | 3.36e7 | 8.60e6 | 1.48e7
CG4594 (GeneID 34316) | 1 | 3.92e7 | – | 1.88e7 | –
CG33964 + CG13175 | 1 | 2.64e7 | 3.19e7 | 1.35e7 | 1.39e7
CG33964 + CG13175 | 2 | 2.29e7 | 3.12e7 | 1.28e7 | 1.38e7
CG33964 + CG13175 | 3 | 2.19e7 | 3.03e7 | 1.12e7 | 1.37e7
Gyc88E (GeneID 41825) | 1 | 4.34e7 | 6.10e7 | 2.06e7 | 6.50e7
Pepck2 (GeneID 37130) | 1 | 5.81e7 | 6.45e7 | 2.33e7 | 2.89e7
Yp2 (GeneID 31938) | 1 | 3.79e7 | 3.89e7 | 1.80e7 | 1.67e7
SamDC (GeneID 34396) | 1 | 4.60e7 | – | 2.27e7 | –
Zip89B (GeneID 41975) | 1 | 3.48e7 | 4.38e7 | 1.78e7 | 7.17e7
CG1965 (GeneID 40842) | 1 | 5.87e7 | 5.17e7 | 2.10e7 | 2.34e7
CG1965 (GeneID 40842) | 2 | 4.08e7 | 3.60e7 | 2.27e7 | 1.66e7
CG17683 (GeneID 3355011) | 1 | 3.78e7 | 3.25e7 | 2.06e7 | 1.53e7
CG30384 (GeneID 246584) | 1 | 3.69e7 | 3.79e7 | 1.58e7 | 1.54e7
CG42514 (GeneID 8674108) | 1 | 2.52e7 | 3.72e7 | 1.22e7 | 2.32e7
CG12111 (GeneID 31796) | 1 | 3.34e7 | 3.79e7 | 1.72e7 | 1.92e7
CG7168 (GeneID 42184) | 1 | 3.64e7 | 3.76e7 | 1.74e7 | 1.70e7
CG34194 (GeneID 5740534) | 1 | 3.20e7 | 4.84e7 | 1.52e7 | 2.00e7
Cht8 (GeneID 37390) | 1 | 3.93e7 | 4.94e7 | 2.14e7 | 2.03e7
Stt3A (GeneID 33082) | 1 | 3.18e7 | 3.72e7 | 1.54e7 | 1.65e7
CG1468 (GeneID 31920) | 1 | 4.41e7 | 4.11e7 | 1.83e7 | 1.70e7
CG32687 (GeneID 31980) | 1 | 2.79e7 | 3.06e7 | 1.36e7 | 1.51e7
CG32687 (GeneID 31980) | 2 | 2.93e7 | 4.13e7 | 1.46e7 | 1.83e7
CG10764 (GeneID 36962) | 1 | 3.03e7 | 2.74e7 | 1.25e7 | 1.35e7
CR43999 (retired record) (GeneID 14462515) | 1 | 4.95e7 | 4.75e7 | 2.20e7 | 2.14e7

3 consecutive records already listed, quoted:
gene | reagent no. | calcium entry signal, replicate 1 (fluorescence units) | calcium entry signal, replicate 2 (fluorescence units) | resting calcium signal, replicate 1 (fluorescence units) | resting calcium signal, replicate 2 (fluorescence units)
CG32687 (GeneID 31980) | 2 | 2.93e7 | 4.13e7 | 1.46e7 | 1.83e7
CG10764 (GeneID 36962) | 1 | 3.03e7 | 2.74e7 | 1.25e7 | 1.35e7
CR43999 (retired record) (GeneID 14462515) | 1 | 4.95e7 | 4.75e7 | 2.20e7 | 2.14e7
